Measured values: publication PMC4686876
For at least one entry, the source does not settle the construct or the ends of the probe.

The chains behind the UniProt entries cited, without tags or fusion partners. Residues count along the entry.
UniProt P01579, 24-161: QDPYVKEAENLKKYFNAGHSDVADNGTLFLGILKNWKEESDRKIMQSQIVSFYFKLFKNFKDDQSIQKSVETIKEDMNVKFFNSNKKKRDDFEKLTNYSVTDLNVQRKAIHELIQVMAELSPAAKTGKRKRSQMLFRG

Target: interferon-gamma (IFNγ) (human) (UniProt P01579)
Experiment: binding assay
Conditions: SPR (BIAcore T200, biotinylated aptamer on SA chip), 1x PBS (1 mM KH2PO4, 3 mM Na2HPO4) with 205 mM NaCl final, 0.05% NP-40, pH 7.4, 25 °C; IFNγ 1.25-50 nM; recombinant protein; single-stranded DNA

## GGGGTTGGTTGTGTTGGGTGTTGTGT [aptamer 26]
  Kd: 16 nM
